Laboratory results taken from paper PMC8201403.

Chains of the proteins cited; added tags and fusions are not shown. Residues count along the entry.
UniProt P02787, residues 20-698: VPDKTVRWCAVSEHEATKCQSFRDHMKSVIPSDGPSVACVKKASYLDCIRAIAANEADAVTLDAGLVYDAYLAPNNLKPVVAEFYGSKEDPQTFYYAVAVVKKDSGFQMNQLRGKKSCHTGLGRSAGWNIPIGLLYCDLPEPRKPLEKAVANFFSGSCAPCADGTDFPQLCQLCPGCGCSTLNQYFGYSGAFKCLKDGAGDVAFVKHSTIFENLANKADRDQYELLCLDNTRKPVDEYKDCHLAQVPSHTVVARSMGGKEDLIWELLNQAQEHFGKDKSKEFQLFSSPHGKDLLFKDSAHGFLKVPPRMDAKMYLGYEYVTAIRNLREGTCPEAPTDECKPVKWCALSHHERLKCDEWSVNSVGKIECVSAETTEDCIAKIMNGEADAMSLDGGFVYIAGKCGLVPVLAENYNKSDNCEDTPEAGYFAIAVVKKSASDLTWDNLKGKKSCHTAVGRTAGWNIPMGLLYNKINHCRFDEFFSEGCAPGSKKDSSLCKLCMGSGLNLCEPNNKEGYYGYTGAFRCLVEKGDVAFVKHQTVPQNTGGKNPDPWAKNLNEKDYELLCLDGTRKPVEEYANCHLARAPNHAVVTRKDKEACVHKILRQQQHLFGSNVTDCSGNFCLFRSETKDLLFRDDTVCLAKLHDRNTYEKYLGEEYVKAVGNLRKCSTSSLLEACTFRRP
UniProt P02768, residues 25-609: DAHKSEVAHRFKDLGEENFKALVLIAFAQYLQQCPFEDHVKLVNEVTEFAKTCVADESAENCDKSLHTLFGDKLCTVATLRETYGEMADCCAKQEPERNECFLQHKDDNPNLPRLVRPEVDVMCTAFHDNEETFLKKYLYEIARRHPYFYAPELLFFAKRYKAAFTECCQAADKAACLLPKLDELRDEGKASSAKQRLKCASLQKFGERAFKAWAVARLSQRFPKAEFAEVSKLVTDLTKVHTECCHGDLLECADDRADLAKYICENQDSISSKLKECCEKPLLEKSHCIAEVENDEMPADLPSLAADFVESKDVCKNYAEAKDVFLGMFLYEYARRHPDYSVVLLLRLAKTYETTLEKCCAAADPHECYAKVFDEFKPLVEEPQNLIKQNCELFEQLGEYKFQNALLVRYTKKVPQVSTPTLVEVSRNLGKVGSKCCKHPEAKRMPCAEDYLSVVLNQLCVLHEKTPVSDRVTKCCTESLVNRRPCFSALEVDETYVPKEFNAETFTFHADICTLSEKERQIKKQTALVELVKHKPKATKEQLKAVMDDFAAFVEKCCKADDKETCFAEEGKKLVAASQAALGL
UniProt P68871: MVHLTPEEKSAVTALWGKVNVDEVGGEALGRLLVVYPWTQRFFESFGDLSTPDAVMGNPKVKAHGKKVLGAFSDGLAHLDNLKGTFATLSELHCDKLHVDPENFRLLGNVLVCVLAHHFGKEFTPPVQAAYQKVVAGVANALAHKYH
UniProt Q6S8J3: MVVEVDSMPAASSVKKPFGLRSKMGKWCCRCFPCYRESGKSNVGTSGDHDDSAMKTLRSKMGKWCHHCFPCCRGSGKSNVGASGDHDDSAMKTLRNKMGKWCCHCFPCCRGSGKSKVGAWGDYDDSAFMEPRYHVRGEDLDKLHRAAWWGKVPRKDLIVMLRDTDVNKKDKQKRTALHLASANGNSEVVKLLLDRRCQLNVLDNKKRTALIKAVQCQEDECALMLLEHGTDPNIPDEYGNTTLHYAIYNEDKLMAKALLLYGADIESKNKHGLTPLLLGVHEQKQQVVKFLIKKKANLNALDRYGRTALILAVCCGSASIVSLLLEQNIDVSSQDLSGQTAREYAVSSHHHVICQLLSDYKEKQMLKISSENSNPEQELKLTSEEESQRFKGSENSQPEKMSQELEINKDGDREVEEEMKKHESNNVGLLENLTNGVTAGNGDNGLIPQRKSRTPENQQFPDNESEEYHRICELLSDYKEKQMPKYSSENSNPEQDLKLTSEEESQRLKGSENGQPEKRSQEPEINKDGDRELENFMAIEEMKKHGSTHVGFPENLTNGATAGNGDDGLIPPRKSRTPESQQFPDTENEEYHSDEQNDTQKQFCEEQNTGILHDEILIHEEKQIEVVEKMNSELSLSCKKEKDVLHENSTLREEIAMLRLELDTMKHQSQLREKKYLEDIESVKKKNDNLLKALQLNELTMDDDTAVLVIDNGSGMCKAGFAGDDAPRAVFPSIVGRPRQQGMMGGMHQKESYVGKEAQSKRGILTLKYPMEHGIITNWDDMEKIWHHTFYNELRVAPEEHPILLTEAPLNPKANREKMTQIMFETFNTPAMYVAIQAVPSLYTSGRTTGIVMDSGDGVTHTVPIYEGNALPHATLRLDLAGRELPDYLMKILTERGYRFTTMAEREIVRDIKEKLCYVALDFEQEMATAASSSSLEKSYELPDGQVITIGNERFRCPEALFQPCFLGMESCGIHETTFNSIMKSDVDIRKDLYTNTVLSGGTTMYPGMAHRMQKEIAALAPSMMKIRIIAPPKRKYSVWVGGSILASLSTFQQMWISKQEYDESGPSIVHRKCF
UniProt P0DMV8: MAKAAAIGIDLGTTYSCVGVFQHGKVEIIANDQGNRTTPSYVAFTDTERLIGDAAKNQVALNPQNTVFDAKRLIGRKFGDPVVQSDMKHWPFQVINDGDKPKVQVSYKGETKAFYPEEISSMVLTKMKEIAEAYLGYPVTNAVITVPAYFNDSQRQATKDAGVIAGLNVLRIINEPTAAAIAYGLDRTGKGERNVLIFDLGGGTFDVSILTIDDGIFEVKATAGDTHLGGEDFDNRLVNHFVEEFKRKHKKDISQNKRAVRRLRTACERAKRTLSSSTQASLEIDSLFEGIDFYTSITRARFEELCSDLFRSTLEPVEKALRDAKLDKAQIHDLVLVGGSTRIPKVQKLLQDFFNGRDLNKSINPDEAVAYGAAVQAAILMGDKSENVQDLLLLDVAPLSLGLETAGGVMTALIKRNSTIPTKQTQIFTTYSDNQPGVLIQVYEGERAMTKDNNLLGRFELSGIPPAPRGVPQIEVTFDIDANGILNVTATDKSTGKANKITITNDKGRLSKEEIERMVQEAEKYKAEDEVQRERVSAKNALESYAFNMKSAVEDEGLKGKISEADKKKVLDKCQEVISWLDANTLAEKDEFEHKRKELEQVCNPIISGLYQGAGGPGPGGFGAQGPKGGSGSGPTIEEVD
UniProt P11142: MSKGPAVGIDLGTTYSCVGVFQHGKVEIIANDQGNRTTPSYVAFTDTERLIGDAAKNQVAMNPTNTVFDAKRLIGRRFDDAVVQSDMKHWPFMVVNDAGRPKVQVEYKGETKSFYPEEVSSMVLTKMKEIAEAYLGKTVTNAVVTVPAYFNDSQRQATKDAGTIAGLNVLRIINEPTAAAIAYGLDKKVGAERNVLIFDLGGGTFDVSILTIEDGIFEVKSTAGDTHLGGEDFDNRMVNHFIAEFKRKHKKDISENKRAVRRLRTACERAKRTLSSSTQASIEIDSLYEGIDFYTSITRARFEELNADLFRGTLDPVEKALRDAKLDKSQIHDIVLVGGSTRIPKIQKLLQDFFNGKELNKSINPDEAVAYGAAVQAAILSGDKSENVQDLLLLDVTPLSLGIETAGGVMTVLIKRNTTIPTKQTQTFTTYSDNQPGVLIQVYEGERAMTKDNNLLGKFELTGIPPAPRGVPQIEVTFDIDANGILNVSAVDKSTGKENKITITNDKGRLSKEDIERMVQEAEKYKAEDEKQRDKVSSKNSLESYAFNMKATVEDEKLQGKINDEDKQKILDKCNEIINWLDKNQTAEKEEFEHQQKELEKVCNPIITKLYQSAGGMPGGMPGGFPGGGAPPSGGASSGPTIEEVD
UniProt P38646, residues 47-679: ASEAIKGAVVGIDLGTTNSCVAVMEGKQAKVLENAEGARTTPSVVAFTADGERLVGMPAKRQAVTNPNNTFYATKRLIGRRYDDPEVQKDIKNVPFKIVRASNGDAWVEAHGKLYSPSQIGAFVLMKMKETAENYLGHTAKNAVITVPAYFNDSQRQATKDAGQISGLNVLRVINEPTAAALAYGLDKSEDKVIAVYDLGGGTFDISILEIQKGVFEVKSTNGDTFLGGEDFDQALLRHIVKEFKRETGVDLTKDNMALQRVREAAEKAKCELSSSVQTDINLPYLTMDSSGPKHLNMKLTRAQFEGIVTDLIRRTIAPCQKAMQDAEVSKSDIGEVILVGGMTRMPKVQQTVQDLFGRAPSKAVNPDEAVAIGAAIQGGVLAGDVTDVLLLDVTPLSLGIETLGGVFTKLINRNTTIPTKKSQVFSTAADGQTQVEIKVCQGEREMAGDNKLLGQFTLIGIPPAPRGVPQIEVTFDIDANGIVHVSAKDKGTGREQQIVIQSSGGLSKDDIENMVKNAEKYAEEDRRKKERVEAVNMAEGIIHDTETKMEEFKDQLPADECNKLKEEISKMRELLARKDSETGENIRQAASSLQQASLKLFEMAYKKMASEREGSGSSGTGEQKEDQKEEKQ
UniProt Q7Z406: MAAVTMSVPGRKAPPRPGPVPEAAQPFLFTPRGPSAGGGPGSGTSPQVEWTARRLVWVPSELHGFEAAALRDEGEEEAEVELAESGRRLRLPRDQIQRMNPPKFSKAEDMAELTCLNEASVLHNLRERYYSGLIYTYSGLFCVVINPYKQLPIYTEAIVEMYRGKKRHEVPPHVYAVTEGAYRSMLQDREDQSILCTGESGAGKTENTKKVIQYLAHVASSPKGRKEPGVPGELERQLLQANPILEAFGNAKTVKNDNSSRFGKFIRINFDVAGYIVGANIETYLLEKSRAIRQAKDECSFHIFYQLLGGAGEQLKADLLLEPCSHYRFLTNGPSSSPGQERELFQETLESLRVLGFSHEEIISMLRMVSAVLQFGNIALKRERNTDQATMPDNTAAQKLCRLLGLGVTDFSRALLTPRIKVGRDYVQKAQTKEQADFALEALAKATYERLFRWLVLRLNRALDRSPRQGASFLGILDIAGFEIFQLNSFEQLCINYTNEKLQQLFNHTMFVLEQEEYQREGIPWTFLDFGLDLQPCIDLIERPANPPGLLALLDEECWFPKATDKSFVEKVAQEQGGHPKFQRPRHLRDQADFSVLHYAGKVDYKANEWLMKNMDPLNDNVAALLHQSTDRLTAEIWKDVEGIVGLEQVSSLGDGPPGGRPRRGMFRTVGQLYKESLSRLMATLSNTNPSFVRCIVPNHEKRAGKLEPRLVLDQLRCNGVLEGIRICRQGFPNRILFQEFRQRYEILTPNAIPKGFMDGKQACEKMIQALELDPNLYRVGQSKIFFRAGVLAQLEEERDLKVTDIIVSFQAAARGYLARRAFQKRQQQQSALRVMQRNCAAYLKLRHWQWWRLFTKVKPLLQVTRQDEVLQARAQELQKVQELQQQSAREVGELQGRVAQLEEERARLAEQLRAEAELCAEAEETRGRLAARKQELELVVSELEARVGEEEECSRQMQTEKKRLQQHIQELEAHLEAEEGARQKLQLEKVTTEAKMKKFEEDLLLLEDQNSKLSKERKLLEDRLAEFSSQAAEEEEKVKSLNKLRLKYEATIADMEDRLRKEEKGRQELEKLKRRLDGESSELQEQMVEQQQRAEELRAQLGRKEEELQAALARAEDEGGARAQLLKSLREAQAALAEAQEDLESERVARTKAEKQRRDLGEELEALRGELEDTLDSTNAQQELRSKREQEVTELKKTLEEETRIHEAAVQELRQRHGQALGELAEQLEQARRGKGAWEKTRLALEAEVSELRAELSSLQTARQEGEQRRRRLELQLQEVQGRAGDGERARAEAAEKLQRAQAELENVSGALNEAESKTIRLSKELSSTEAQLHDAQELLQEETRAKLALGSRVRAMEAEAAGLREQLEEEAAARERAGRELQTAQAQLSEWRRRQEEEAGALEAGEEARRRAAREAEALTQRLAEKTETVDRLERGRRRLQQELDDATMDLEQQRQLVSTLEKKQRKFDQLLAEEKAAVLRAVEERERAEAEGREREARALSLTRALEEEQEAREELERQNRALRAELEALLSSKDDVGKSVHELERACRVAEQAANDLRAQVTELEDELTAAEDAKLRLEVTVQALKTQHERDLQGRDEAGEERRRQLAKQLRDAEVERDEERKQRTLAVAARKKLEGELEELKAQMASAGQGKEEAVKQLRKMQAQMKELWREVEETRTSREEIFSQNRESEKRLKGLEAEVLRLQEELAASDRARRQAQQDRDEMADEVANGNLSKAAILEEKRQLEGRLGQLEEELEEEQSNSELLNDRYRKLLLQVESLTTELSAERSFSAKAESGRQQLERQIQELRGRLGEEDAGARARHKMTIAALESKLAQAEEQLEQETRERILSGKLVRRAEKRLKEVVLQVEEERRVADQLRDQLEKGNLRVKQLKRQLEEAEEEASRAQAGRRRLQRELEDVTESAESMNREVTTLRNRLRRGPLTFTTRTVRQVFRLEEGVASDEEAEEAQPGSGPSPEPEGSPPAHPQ

Legend:
Assay in all cases: affinity purification with mass spectrometry; endogenous LXN, RPL29, FAU, AHSG, ALB and TF each immuno-precipitated with its antibody; gel bands digested with trypsin, Nano-LC ESI-QTOF-MS; two biological replicates; candidates narrowed with STRING
[1] = target: Serotransferrin (TF), endogenous (human (endogenous in Bel-7402)) (UniProt P02787)
[2] = target: T1, Alpha 2-HS glycoprotein (AHSG), endogenous (human (endogenous in Bel-7402)) (UniProt P02765)
T1 sequence: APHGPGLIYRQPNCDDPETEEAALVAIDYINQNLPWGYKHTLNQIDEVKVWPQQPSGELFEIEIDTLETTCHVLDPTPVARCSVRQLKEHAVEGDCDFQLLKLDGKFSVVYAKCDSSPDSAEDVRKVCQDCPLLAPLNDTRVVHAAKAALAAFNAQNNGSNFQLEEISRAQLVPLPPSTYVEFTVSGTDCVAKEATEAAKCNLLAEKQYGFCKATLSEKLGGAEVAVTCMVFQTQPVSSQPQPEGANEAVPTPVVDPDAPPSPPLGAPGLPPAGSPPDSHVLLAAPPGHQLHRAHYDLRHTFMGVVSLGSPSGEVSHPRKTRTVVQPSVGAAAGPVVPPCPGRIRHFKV

[3] = target: Albumin (ALB), endogenous (human (endogenous in Bel-7402)) (UniProt P02768)
[4] = target: T2, Latexin (LXN), endogenous (human (endogenous in Bel-7402)) (UniProt Q9BS40)
T2 sequence: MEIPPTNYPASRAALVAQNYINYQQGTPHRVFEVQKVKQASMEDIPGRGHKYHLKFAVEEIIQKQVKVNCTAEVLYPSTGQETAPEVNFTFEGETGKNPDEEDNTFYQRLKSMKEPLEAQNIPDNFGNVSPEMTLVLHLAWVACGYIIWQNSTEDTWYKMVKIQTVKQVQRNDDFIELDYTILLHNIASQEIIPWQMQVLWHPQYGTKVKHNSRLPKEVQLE

Measured: binding

HBB, endogenous (from UniProt P68871 1-147)
binds: [1] | [2]

POTE Ankyrin domain family member E (POTEE), endogenous (from UniProt Q6S8J3 1-1075)
binds: all assays above

POTEI, endogenous (from UniProt P0CG38 1-1075)
binds: all assays above

POTEJ, endogenous (from UniProt P0CG39 1-1038)
binds: all assays above

heat shock protein family A member 1A (HSPA1A), endogenous (from UniProt P0DMV8 1-641)
binds: all assays above

heat shock protein family A member 8 (HSPA8), endogenous (from UniProt P11142 1-646)
binds: all assays above

heat shock protein family A member 9 (HSPA9), endogenous (from UniProt P38646 47-679)
binds: all assays above

myosin heavy chain 14 (MYH14), endogenous (from UniProt Q7Z406 1-1995)
binds: all assays above

No constants are given. Whether binding was seen depends on the method and setting. Binding seen in cells or lysates may run through a third protein. A yes stands for co-enrichment or nearness to the bait. Other partners may have been found.
